Measured values: the supplement of paper PMC12823440, “Inhibitors supercharge kinase turnover through native proteolytic circuits” (Nature, 2025)
The list shows a part of the results. Hit calls seldom repeat between salt and free forms of one compound.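 Kinases, fused to nanoluciferase, were expressed in K562 cells; luminescence was measured every 4 h from 2 to 18 h as percent of control (DMSO = 100%, positive control = 0%). A time point is decreased if signal falls significantly (2 sigma). Hits were called by the authors by a rule that is not shown; the count of time points alone does not decide it.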

Amino acid sequences for entries named in this document (tags omitted). A change or cut given only in a name is not applied to a line headed by its entry.
UniProt Q8IWU2: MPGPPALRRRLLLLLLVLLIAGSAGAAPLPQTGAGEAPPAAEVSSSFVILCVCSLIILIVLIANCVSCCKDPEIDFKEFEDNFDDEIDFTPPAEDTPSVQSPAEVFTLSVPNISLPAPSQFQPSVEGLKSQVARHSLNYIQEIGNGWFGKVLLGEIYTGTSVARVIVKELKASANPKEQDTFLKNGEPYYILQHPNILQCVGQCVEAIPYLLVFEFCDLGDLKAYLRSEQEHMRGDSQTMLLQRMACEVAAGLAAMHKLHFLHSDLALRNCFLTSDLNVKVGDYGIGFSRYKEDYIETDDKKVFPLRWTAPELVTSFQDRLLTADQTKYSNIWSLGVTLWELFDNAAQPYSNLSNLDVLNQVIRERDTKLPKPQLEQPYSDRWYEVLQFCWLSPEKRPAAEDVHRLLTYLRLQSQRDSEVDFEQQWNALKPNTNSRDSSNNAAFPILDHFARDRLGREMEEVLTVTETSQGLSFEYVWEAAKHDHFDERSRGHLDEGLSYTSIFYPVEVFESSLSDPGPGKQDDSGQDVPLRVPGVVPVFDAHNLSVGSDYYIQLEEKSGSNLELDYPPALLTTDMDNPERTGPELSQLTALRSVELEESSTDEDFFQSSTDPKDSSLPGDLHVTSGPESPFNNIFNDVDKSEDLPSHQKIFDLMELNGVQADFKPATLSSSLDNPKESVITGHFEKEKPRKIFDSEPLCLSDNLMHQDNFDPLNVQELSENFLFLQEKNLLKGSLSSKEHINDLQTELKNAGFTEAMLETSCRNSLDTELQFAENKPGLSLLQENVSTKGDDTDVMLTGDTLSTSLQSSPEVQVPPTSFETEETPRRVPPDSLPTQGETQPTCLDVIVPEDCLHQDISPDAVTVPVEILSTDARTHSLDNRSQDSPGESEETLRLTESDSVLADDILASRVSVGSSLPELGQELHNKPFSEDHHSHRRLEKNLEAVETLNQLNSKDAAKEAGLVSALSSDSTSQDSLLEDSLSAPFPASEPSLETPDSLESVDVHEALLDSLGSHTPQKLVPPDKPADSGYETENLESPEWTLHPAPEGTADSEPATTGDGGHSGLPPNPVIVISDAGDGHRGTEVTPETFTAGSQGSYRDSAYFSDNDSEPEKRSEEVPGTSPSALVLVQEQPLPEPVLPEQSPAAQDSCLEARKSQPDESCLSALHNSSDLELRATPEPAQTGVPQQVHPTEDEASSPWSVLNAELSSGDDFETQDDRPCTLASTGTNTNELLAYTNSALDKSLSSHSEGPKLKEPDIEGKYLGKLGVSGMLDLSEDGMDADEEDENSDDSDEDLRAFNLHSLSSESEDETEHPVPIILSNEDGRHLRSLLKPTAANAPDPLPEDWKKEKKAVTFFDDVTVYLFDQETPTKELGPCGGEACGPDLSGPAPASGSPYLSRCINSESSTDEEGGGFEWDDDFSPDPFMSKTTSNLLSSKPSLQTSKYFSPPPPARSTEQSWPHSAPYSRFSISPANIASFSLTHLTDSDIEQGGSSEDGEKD
UniProt P07948: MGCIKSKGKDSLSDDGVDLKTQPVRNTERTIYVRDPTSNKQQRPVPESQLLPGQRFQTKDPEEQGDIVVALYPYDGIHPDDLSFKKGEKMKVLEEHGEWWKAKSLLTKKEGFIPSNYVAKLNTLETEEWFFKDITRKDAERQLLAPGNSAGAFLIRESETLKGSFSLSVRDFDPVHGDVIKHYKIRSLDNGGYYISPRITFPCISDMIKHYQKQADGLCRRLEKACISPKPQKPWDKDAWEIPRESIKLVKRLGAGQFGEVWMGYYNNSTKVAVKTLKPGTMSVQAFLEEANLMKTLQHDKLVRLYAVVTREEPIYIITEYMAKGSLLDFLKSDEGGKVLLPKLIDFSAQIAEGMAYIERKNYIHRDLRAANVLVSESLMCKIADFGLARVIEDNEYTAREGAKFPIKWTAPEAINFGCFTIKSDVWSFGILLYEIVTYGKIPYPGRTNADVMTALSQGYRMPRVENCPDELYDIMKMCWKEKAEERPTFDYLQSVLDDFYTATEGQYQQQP
UniProt Q12851: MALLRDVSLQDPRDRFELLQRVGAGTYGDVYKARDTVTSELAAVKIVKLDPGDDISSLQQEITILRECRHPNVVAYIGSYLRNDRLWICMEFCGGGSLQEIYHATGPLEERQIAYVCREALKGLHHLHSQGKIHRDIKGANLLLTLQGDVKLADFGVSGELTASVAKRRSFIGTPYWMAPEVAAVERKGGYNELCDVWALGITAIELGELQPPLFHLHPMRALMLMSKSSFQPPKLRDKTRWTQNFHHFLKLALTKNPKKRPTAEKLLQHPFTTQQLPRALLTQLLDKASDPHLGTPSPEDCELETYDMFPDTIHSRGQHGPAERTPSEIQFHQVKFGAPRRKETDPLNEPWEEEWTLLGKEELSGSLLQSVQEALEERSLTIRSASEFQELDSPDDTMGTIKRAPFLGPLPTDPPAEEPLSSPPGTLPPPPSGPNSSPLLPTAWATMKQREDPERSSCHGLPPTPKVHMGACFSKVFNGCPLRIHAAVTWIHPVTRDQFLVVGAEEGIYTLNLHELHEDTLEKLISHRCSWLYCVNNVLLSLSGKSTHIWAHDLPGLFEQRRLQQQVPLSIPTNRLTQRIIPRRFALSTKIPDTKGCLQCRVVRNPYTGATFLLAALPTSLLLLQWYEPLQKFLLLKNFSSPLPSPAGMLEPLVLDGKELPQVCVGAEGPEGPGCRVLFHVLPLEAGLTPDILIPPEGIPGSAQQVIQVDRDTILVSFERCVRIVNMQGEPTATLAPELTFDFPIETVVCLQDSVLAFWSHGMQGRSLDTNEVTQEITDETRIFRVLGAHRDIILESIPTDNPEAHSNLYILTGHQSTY
UniProt P28482, whole entry: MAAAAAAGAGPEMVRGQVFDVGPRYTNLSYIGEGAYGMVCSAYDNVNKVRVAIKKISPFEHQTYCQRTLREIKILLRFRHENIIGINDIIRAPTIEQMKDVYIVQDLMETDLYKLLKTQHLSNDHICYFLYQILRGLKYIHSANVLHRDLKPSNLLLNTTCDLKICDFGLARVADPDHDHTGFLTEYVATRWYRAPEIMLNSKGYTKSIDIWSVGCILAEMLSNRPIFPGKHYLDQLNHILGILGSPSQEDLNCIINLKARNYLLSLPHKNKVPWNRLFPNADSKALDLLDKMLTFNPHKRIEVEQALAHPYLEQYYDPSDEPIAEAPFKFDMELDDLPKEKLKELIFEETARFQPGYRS
UniProt P31152, whole entry: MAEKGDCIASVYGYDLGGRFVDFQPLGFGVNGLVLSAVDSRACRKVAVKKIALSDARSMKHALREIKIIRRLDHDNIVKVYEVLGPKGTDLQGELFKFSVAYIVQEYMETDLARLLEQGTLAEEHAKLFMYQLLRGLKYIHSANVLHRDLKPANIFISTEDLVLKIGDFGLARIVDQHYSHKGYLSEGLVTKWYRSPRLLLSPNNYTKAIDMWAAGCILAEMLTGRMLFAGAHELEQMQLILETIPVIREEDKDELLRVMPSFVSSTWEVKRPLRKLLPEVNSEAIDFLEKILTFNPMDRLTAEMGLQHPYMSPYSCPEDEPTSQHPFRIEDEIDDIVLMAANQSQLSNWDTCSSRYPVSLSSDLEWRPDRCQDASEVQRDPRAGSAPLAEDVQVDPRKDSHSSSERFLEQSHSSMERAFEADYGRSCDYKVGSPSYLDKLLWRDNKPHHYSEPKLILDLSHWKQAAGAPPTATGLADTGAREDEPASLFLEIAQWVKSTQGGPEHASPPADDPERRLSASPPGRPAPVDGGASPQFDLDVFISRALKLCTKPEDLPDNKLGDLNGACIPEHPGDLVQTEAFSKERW
UniProt P49137, whole entry, looked up: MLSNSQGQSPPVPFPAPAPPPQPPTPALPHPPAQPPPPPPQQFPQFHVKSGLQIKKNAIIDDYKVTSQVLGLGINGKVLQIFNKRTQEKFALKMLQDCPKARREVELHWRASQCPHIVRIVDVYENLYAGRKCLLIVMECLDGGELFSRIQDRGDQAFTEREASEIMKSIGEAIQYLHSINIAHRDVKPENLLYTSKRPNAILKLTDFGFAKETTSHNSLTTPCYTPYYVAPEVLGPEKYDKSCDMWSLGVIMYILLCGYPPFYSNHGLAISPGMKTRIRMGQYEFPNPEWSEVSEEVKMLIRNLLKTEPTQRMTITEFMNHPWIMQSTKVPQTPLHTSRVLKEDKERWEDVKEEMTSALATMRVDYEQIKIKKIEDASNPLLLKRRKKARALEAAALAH
UniProt Q9BUB5: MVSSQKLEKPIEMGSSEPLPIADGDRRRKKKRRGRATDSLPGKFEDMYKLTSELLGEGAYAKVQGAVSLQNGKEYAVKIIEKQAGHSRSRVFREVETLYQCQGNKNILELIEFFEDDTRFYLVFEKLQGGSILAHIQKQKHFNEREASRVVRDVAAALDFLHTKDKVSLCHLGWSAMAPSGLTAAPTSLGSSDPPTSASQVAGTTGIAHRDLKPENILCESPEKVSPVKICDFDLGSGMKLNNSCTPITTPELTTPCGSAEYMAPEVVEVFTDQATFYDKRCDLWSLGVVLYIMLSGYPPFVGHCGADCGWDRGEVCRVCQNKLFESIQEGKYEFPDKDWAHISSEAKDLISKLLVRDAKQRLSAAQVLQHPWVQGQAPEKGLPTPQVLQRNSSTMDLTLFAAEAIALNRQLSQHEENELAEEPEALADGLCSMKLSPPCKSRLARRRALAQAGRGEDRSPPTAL
UniProt Q16620, whole entry, looked up: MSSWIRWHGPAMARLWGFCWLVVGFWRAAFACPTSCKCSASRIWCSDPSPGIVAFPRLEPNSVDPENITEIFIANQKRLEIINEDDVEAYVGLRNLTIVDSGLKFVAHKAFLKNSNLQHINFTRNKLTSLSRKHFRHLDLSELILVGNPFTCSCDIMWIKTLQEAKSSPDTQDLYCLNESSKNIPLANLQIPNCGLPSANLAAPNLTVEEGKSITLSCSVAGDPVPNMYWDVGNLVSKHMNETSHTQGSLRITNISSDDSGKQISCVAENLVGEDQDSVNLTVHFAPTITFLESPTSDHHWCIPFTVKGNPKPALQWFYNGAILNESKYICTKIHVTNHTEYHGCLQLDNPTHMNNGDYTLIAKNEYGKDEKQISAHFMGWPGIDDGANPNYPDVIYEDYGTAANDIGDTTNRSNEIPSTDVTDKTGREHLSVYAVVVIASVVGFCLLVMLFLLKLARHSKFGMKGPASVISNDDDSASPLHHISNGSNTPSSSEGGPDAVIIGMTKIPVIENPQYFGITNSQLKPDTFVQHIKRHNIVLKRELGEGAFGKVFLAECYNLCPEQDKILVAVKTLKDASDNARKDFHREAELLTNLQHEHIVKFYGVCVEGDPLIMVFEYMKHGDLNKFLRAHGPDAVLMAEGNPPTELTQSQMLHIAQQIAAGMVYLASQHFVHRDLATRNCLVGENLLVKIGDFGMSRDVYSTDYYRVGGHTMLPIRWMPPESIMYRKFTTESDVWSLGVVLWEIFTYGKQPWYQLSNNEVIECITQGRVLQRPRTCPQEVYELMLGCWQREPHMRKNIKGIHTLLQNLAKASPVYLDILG

Tests used:
Assay in all cases: number of time points (of 5) at which kinase-Nluc abundance scored as decreased, DMSO-normalised (count); higher = more persistent destabilization
Conditions in all cases: K562; 2-18 h
LMTK2 = LMTK2 (UniProt Q8IWU2)
LYN = LYN (UniProt P07948)
MAP2K1 = MAP2K1 (UniProt Q02750)
MAP2K2 = MAP2K2 (UniProt P36507)
MAP4K2 = MAP4K2 (UniProt Q12851)
MAPK1 = MAPK1 (UniProt P28482)
MAPK4 = MAPK4 (UniProt P31152)
MAPKAPK2 = MAPKAPK2 (UniProt P49137)
MKNK1 = MKNK1 (UniProt Q9BUB5)
NTRK2 = NTRK2 (UniProt Q16620)

SMILES | number of time points (LMTK2) | number of time points (LYN) | number of time points (MAP2K1) | number of time points (MAP2K2) | number of time points (MAP4K2) | number of time points (MAPK1) | number of time points (MAPK4) | number of time points (MAPKAPK2) | number of time points (MKNK1) | number of time points (NTRK2)
COc1cc2ncnc(Nc3cccc(O)c3)c2cc1OC (10 µM) | 0 | 0 | 0 | 0 | 0 | 0 | 0 | 0 | 4 | 1
O=c1oc2ccccc2c(O)c1Cc1c(O)c2ccccc2oc1=O [Dicoumarol] (10 µM) | 0 | 0 | 0 | 0 | 0 |  | 0 | 0 | 0 | 0
C[C@H](CN(C)C)Oc1nc(Nc2cc3cccc(Cl)c3cn2)cnc1C#N (10 µM) | 0 | 0 | 0 | 0 | 0 | 0 | 0 | 0 | 0 | 0
FC(F)(F)c1ccc(CNc2ccc(Cc3c[nH]c4ncc(Cl)cc34)cn2)cc1 (10 µM) | 0 | 0 | 0 | 0 | 0 | 0 | 0 | 0 | 0 | 0
COc1ccc(NC(=O)N2CCN(c3nc(N)nc4c3cnn4C)[C@@H](C)C2)c(C)c1 (10 µM) | 0 | 0 | 0 | 0 | 0 | 0 | 0 | 0 | 0 | 0
